The list shows a part of the results.

By UniProt entry, the sequences of proteins in these tests, tags left out. Where a name states a change or a piece, a line headed by the entry shows the natural chain unless it says otherwise.
UniProt Q6P1K8: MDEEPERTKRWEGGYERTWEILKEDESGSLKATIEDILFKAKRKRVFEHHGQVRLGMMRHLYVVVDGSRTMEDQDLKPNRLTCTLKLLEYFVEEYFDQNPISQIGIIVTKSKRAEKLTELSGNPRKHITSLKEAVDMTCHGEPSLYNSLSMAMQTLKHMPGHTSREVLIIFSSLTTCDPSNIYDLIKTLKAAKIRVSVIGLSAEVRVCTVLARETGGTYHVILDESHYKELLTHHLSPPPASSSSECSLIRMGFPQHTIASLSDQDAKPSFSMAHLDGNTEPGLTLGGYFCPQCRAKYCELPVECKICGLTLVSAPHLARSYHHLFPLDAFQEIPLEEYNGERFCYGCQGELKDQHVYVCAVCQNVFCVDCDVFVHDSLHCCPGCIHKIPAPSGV
UniProt A4D1E9: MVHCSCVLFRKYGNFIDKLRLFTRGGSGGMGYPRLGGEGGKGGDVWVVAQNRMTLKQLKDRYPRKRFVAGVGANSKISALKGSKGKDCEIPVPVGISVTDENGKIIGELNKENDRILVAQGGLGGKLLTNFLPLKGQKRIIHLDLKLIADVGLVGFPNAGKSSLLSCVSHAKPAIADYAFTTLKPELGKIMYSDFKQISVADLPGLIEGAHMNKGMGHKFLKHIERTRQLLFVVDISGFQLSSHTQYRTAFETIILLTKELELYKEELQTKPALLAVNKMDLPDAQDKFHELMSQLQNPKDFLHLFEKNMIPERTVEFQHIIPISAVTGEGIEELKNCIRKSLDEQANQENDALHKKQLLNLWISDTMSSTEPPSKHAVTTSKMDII
UniProt Q969F1: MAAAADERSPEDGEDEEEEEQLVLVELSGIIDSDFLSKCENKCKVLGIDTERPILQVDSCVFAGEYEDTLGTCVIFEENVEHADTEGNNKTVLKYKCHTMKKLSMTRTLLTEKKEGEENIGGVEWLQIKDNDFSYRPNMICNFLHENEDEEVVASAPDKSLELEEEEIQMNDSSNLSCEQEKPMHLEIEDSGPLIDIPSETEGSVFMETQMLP
UniProt P28799: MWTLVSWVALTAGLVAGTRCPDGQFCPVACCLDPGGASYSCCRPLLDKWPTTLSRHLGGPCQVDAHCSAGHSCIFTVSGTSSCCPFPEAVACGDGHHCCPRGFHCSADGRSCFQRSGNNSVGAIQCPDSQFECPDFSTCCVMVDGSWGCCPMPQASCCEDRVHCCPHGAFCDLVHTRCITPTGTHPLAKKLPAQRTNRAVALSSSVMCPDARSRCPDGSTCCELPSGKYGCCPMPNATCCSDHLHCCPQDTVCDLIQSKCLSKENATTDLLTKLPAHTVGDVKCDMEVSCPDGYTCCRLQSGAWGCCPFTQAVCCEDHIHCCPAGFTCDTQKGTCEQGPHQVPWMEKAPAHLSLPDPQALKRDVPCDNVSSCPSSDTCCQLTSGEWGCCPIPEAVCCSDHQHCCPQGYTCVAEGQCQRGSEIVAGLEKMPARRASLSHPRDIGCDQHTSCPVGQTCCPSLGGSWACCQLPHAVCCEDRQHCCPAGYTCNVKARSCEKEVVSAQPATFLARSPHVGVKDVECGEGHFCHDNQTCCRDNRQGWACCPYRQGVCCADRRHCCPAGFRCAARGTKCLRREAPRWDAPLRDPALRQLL
UniProt P55084: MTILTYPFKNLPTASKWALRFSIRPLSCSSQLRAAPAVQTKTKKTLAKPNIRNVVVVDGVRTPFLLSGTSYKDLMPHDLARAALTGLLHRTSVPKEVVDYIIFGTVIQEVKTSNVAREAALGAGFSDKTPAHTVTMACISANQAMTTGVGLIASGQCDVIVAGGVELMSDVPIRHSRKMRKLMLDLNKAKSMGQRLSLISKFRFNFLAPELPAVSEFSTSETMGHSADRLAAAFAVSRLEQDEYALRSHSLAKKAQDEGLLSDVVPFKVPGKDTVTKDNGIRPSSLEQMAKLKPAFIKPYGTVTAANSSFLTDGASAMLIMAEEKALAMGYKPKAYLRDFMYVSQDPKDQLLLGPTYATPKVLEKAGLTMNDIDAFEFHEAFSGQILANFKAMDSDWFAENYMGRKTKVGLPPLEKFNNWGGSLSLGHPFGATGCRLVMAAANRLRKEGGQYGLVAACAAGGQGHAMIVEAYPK
UniProt Q9HAV7: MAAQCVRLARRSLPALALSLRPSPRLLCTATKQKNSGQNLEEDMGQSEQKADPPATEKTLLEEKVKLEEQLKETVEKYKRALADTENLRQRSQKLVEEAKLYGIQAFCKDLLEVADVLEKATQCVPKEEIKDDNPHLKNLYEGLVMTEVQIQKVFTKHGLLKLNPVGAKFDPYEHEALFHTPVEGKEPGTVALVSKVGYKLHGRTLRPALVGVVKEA
UniProt Q9BX10: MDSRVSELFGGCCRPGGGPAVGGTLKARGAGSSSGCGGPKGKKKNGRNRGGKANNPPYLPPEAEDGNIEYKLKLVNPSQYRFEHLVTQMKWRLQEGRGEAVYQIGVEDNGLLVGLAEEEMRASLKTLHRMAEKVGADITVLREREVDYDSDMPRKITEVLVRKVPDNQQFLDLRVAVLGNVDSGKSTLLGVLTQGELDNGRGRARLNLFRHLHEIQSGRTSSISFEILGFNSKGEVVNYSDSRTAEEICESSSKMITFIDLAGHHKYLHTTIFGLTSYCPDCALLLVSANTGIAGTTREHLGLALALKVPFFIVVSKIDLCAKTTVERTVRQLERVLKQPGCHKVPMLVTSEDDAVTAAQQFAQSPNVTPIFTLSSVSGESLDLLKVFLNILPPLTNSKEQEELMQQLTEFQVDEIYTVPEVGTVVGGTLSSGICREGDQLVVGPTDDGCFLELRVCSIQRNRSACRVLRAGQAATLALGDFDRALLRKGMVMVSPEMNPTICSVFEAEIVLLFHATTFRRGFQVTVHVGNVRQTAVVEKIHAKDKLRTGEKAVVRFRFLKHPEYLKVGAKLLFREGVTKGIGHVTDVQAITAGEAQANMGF
UniProt O43824: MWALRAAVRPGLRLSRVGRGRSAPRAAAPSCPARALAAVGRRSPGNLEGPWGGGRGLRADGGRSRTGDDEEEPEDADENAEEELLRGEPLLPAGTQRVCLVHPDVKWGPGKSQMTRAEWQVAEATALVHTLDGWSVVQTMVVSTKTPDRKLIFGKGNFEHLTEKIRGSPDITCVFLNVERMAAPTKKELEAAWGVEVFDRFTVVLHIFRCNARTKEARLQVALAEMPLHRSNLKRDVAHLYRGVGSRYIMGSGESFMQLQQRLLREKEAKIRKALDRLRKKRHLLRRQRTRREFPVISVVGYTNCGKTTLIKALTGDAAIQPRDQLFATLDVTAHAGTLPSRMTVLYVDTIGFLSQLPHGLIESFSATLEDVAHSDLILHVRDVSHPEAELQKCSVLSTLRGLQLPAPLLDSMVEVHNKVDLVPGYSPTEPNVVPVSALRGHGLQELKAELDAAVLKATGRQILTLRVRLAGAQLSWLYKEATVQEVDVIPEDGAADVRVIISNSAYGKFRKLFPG
UniProt Q96NT3: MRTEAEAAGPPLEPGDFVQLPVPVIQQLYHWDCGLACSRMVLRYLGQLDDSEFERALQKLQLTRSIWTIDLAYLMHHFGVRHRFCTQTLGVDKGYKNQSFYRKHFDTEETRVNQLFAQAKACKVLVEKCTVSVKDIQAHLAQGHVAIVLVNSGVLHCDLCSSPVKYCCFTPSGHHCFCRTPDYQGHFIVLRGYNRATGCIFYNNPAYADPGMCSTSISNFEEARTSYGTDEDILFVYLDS
UniProt P42357: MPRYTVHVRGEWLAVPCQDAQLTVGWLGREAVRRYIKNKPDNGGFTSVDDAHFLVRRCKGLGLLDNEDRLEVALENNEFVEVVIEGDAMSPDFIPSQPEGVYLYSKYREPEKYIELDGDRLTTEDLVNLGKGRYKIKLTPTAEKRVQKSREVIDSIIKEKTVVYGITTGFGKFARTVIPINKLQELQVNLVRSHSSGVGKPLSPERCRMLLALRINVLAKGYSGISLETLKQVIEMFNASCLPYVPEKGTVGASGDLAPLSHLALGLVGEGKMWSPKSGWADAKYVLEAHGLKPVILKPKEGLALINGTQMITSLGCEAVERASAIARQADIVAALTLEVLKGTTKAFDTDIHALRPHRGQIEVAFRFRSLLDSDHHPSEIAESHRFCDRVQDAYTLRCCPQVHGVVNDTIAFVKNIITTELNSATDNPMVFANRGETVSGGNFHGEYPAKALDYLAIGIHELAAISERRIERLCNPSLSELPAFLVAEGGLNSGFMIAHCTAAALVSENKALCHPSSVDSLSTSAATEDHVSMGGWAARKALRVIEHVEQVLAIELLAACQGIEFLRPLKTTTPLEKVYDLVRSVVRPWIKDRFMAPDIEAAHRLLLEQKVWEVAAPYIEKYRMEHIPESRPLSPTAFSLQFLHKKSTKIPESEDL
UniProt P09105: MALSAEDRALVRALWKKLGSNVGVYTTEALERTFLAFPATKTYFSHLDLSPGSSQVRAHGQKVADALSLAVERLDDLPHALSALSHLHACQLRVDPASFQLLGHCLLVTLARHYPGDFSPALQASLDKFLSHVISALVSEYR
UniProt P51610: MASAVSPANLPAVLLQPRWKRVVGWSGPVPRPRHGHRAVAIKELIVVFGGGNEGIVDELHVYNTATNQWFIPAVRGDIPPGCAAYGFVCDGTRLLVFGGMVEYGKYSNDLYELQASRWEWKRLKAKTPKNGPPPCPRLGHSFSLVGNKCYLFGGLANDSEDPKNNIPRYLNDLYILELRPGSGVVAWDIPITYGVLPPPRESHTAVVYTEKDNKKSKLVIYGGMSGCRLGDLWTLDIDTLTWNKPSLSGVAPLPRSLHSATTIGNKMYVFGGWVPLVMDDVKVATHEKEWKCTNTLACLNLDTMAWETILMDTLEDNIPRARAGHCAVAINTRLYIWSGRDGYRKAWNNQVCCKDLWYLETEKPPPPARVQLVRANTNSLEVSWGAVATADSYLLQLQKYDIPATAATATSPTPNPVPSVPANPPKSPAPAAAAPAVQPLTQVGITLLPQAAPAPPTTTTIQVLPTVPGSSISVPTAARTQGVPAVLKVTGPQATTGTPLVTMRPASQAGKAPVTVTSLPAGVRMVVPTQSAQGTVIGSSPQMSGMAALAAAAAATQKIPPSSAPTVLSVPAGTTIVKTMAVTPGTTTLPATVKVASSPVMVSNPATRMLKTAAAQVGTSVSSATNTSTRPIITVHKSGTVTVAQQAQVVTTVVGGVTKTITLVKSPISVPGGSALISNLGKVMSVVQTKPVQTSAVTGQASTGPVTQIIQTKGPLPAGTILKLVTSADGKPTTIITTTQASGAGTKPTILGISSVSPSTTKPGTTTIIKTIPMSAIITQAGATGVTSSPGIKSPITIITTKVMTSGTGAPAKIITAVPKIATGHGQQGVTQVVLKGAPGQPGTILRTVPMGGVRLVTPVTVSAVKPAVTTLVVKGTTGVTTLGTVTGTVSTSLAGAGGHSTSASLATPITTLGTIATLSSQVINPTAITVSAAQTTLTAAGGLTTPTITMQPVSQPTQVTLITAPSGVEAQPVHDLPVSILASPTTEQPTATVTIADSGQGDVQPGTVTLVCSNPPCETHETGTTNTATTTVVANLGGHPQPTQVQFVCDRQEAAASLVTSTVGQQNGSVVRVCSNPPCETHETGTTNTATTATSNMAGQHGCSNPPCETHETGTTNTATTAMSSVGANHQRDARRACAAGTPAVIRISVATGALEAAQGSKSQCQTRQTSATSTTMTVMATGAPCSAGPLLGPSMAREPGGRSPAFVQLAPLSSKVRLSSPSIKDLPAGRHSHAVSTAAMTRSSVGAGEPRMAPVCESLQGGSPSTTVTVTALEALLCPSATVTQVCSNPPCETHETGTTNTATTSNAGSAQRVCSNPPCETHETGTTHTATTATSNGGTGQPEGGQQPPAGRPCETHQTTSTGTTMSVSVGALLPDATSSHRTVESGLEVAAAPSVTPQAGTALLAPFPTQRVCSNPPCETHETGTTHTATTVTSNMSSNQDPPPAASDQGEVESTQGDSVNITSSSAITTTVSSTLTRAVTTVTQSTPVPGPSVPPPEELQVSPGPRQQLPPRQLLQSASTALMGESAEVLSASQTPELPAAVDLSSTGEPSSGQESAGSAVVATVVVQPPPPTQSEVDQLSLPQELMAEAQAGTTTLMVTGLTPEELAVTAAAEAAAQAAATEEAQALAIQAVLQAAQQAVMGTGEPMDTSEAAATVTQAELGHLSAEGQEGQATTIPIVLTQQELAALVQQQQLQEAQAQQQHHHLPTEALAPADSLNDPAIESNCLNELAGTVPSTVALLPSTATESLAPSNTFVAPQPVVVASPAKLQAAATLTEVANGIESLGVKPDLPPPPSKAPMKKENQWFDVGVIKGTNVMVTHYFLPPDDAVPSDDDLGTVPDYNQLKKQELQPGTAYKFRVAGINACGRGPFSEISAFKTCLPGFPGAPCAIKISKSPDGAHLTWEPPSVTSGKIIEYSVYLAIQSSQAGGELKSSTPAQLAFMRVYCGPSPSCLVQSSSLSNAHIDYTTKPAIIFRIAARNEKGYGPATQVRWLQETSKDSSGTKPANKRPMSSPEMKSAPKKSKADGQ

Compound in one assay: Cc1sc2c(c1C)C(c1ccc(Cl)cc1)=N[C@@H](CC(=O)OC(C)(C)C)c1nnc(C)n1-2
Briefly: log2 fold change, soluble protein after heating vs DMSO (PISA); higher = thermal stabilisation; K562 lysate, 10 uM; active = over 0.2 and 3.5 SD of the protein, either way, in both replicates (recomputed). The procedure, abridged:
(§1)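 The values are log-two fold changes in thermal stability compared with solvent controls and come from duplicates. They were obtained by TMTpro 16plex LC-MS/MS, with channel sums equalised, on the supernatant after 21,000xg for 90 min. That supernatant came from crude K562 extract at 1 mg/mL protein treated with 10 μM compound for 30 min, heated for 3 min across 48°C-58°C, pooled and brought to 0.5% NP-40 at 4°C.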
As for GPSM3 (UniProt Q9Y4H4), the log2 fold change is inactive: -0.03.

Consider HBS1L (UniProt Q9Y450), for which the log2 fold change was inactive: 0.009.

As to GTF2H2C (UniProt Q6P1K8), the log2 fold change is inactive: -0.025.

Turning to GSDME (UniProt O60443), the log2 fold change is inactive: 0.024.

As for GTPBP10 (UniProt A4D1E9), the log2 fold change is inactive: 0.062.

Consider GSN (UniProt P06396), for which the log2 fold change is inactive: -0.011.

With GPT2 (UniProt Q8TD30), the log2 fold change is inactive: 0.079.

Regarding GSR (UniProt P00390), the log2 fold change was inactive: 0.009.

With GTF3C6 (UniProt Q969F1), the log2 fold change is inactive: -0.002.

For the target HAGH (UniProt Q16775), the log2 fold change was inactive: 0.009.

GSTK1 (UniProt Q9Y2Q3): the log2 fold change was inactive: 0.014.

Consider HDAC3 (UniProt O15379), for which the log2 fold change is inactive: 0.044.

With GRN (UniProt P28799), the log2 fold change is inactive: 0.11.

As for GRWD1 (UniProt Q9BQ67), the log2 fold change was inactive: -0.015.

HADHB (UniProt P55084): the log2 fold change was inactive: 0.167.

For GRPEL1 (UniProt Q9HAV7), the log2 fold change is inactive: -0.015.

Regarding GTPBP2 (UniProt Q9BX10), the log2 fold change is inactive: 0.049.

Consider H6PD (UniProt O95479), for which the log2 fold change was inactive: 0.035.

On to H1-2 (UniProt P16403), for which the log2 fold change is inactive: -0.063.

Turning to GTPBP6 (UniProt O43824), the log2 fold change is inactive: -0.439.

Regarding H1-0 (UniProt P07305), the log2 fold change is inactive: 0.114.

For the target HAGH isoform 2 (UniProt Q16775), the log2 fold change was inactive: 0.103.

Take GUCD1 isoform 3 (UniProt Q96NT3): the log2 fold change was inactive: 0.05.

For H3-2 (UniProt Q5TEC6), the log2 fold change is inactive: 0.148.

With HAUS2 (UniProt Q9NVX0), the log2 fold change is inactive: 0.016.

For the target GRM5 (UniProt P41594), the log2 fold change is inactive: 0.013.

As for HDHD5 (UniProt Q9BXW7), the log2 fold change was inactive: -0.05.

Turning to HAL (UniProt P42357), the log2 fold change was inactive: 0.033.

On to HBQ1 (UniProt P09105), for which the log2 fold change was inactive: -0.055.

As to GRAMD4 (UniProt Q6IC98), the log2 fold change is inactive: -0.067.

Turning to HACL1 (UniProt Q9UJ83), the log2 fold change was inactive: -0.042.

Compound in another assay: c1ccc([C@@H]2C[C@H]2NC2CCNCC2)cc1
The description is as above. Put shortly: as §1
In the case of GPSM3 (UniProt Q9Y4H4), the log2 fold change is inactive: -0.199.

As to HBS1L (UniProt Q9Y450), the log2 fold change was inactive: 0.02.

HBZ, A0A494C057: the log2 fold change is inactive: 0.146.

As to GSDME (UniProt O60443), the log2 fold change was inactive: 0.066.

GTPBP10 (UniProt A4D1E9): the log2 fold change was inactive: 0.005.

For the target GSN (UniProt P06396), the log2 fold change was inactive: -0.03.

As for GSR (UniProt P00390), the log2 fold change was inactive: 0.001.

As for GTF3C6 (UniProt Q969F1), the log2 fold change was inactive: 0.032.

As for HAGH (UniProt Q16775), the log2 fold change was inactive: -0.041.

For HCFC1 (UniProt P51610), the log2 fold change is inactive: -0.207.

For the target GSTK1 (UniProt Q9Y2Q3), the log2 fold change was inactive: 0.023.

Take HDAC3 (UniProt O15379): the log2 fold change was inactive: 0.014.

For GRN (UniProt P28799), the log2 fold change was inactive: 0.075.

Regarding GRWD1 (UniProt Q9BQ67), the log2 fold change was inactive: -0.031.

As to H3-3A (UniProt P84243), the log2 fold change is inactive: -0.004.

With HADHB (UniProt P55084), the log2 fold change is inactive: -0.048.

In the case of HBD (UniProt E9PEW8), the log2 fold change is inactive: 0.079.

For the target GRPEL1 (UniProt Q9HAV7), the log2 fold change was inactive: -0.011.

In the case of GTPBP2 (UniProt Q9BX10), the log2 fold change was inactive: 0.034.

As for H6PD (UniProt O95479), the log2 fold change is inactive: 0.017.

As to GREB1 (UniProt Q4ZG55), the log2 fold change is inactive: -0.185.

In the case of H1-2 (UniProt P16403), the log2 fold change is inactive: -0.058.

For the target GTPBP6 (UniProt O43824), the log2 fold change was inactive: 0.118.

Regarding GYPA, A0A2R8Y7F9, the log2 fold change was inactive: -0.163.

Consider HAUS2 (UniProt Q9NVX0), for which the log2 fold change is inactive: 0.176.

Regarding HDHD5 (UniProt Q9BXW7), the log2 fold change was inactive: -0.012.

Turning to HAL (UniProt P42357), the log2 fold change is inactive: 0.011.

Consider HBQ1 (UniProt P09105), for which the log2 fold change is inactive: 0.084.

In the case of HACL1 (UniProt Q9UJ83), the log2 fold change was inactive: -0.017.
